Experimental data taken from PubChem BioAssay AID624297 (National Center for Advancing Translational Sciences (NCATS), 2012).
Hit rate of the full screen: of about 340,000 compounds, about 6,200 (1.8%) were called active. This list was built around the results that the source calls inconclusive (neither active nor inactive); the mix of calls is not that of the screen. The call rests on the fitted dose curve; in most records, active means well fitted activation curve with a large enough effect; inconclusive means small, poorly fitted or top-dose-only effect; inactive means no such curve, though single readings can be large or run the other way. A potency beside an inconclusive call is a rough fit, not a confirmed value.

assay: A quantitative high throughput screen for small molecules that induce DNA re-replication in SW480 colon adenocarcinoma cells.; further: nearly all actives have a fitted effect of over 55% in size; on re-replication activation: % of control where 0% means no effect; conditions: Hoechst DNA content imaging, 48 h; re-replication activation: at 46.1 µM (top of the series) unless noted
Outline: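 DNA re-replication was detected as more nuclei of elevated Hoechst intensity after 48 hr exposure to compound (23 nL pinned per well of 250 cells).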
Potency means the concentration at half of the fitted maximal effect.

Compound	re-replication activation	Potency
COc1cc(OC)c2c(-c3ccccc3)cc(=O)oc2c1C(CCN1CCCC1)c1ccc2c(c1)OCO2 (centres undefined)	inactive: 0.147%	
CN(Cc1ccccc1)S(=O)(=O)c1ccc(NC(=O)c2ccccc2C(=O)O)cc1	inactive: -2.31%	
O=C(Nc1nc2ccc(F)cc2s1)c1cccc(S(=O)(=O)N2CCc3ccccc32)c1	inactive: -34%	
CC(=O)NC1=CC(=C[N+](=O)[O-])C=C1O		inconclusive: 3.66 µM [activator, single point]
CN(CC(=O)Nc1ccccc1Br)C(=O)c1ccccc1OCc1ccc(Cl)cc1	inactive: 6.48%	
COCCCn1c(C)cc(C(=O)COC(=O)CCc2nc3ccccc3c(=O)[nH]2)c1C		inconclusive: 29.1 µM [activator, single point]
Cc1ccc(NC(=S)N/N=C/c2c(C)[nH]c3ccccc23)cc1		inconclusive: 29.1 µM [activator, single point]
COc1ccc2c(c1)C(=O)N1[C@H]3c4cc(Cl)ccc4OC[C@@H]3[C@H](c3ccccc3)[C@]1(C)C(=O)N2		active: 9.2 µM
Cc1cccc(NC(=O)CCS(=O)(=O)c2cccc3nonc23)c1C		inconclusive: 0.0046 µM [activator, full curve, poor fit]
Oc1c(Br)cc(Br)cc1C=Nc1cccc2ncccc12		inconclusive: 6.51 µM [activator, single point]
FC(F)Oc1ccc(NC(=S)NNc2ccnc3cc(Cl)ccc23)cc1		active: 11.6 µM
COc1cc([C@@H]2[C@H]3CNCC=C3C(C#N)=C(N)C2(C#N)C#N)ccc1OC(C)C	inactive: 3.34%	
COc1cc2c(cc1NC(=O)CCCCCN1C(=O)CCC1=O)oc1ccccc12	inactive: 5.73%	
CC(C)C[C@@H](NC(=O)[C@H](Cc1ccccc1)NC(=O)c1cnccn1)B(O)O		active: 0.003 µM
Cc1cc(C)c(NC(=O)CN)c(C)c1		inconclusive: 0.0052 µM [activator, full curve]
O=C(CSc1ccc(Cl)cc1)NC1CCCc2ccccc21 (centres undefined)		inconclusive: 18.4 µM [activator, partial curve, poor fit]
COC(=O)c1c(C)[nH]c(C)c1C(C)=O		inconclusive: 2.31 µM [activator, full curve, poor fit]
CN(C)CCCN1c2ccccc2C(C)(C)c2ccccc21		inconclusive: 33.5 µM [activator, single point]
CCN(CC)c1ccc(S(=O)(=O)N2CCOCC2)cc1NC(=O)CNCc1ccccc1		inconclusive: 29.1 µM [activator, single point]
O=C(CCN1CCN(CCO)CC1)Nc1ccc(C2CCCC2)cc1		inconclusive: 29.1 µM [activator, partial curve, poor fit]
CCC(c1nnnn1Cc1ccco1)N1CCN(c2cc(Cl)ccc2C)CC1 (centres undefined)		inconclusive: 18.4 µM [activator, single point]
COc1ccc(-c2cc(C(F)(F)F)c(C#N)c(SCC(=O)Nc3nc(C)co3)n2)cc1		inconclusive: 1.64 µM [activator, full curve, poor fit]

Exported as comma-separated lines: entries from further up.
Compound,re-replication activation,Potency
COc1cc(OC)c2c(-c3ccccc3)cc(=O)oc2c1C(CCN1CCCC1)c1ccc2c(c1)OCO2 (centres undefined),inactive: 0.147%,
CN(Cc1ccccc1)S(=O)(=O)c1ccc(NC(=O)c2ccccc2C(=O)O)cc1,inactive: -2.31%,
O=C(Nc1nc2ccc(F)cc2s1)c1cccc(S(=O)(=O)N2CCc3ccccc32)c1,inactive: -34%,
CC(=O)NC1=CC(=C[N+](=O)[O-])C=C1O,,"inconclusive: 3.66 µM [activator, single point]"
CN(CC(=O)Nc1ccccc1Br)C(=O)c1ccccc1OCc1ccc(Cl)cc1,inactive: 6.48%,
COCCCn1c(C)cc(C(=O)COC(=O)CCc2nc3ccccc3c(=O)[nH]2)c1C,,"inconclusive: 29.1 µM [activator, single point]"
Cc1ccc(NC(=S)N/N=C/c2c(C)[nH]c3ccccc23)cc1,,"inconclusive: 29.1 µM [activator, single point]"
COc1ccc2c(c1)C(=O)N1[C@H]3c4cc(Cl)ccc4OC[C@@H]3[C@H](c3ccccc3)[C@]1(C)C(=O)N2,,active: 9.2 µM

(listing goes on)

Compound	re-replication activation	Potency
Cc1ccc(S(=O)(=O)Oc2ccc(/C=C(/NC(=O)c3ccccc3)C(=O)NCC(=O)O)cc2)cc1		active: 6.51 µM
C=CCNC(=S)NNC(=O)C(CCC(C)C)CC(C)(C)O (centres undefined)		inconclusive: 29.1 µM [activator, single point]
O=C(CCNC(=O)c1ccc(Cl)cc1)Nc1ccc(Cl)cc1F		inconclusive: 29.1 µM [activator, single point]
CC(NC(N)=O)C(=O)Nc1ccc(Cl)c(S(=O)(=O)Nc2ccc(Cl)cc2)c1 (centres undefined)	inactive: -3.21%	
COc1ccc(NS(=O)(=O)c2cc(NC(=O)[C@@H](NC(=O)c3ccccc3)C(C)C)ccc2C)cc1		inconclusive: 10.3 µM [activator, partial curve, poor fit]
Cc1ccccc1S(=O)(=O)NC1OC(=O)C(Oc2ccccc2)=C1Br (centres undefined)	inactive: 1.49%	
COc1ccc(-c2nnn(CC(=O)Nc3sc4c(c3C#N)CCCC4)n2)cc1		inconclusive: 25.9 µM [activator, partial curve, poor fit]
CN1CCN(C(=S)NC(=O)c2ccc(-c3ccccc3)cc2)CC1		inconclusive: 29.1 µM [activator, single point]
COc1ccc(-c2c(C(F)(F)F)nn(C)c2NC(C)=O)cc1		inconclusive: 6.51 µM [activator, single point]
O=C(O)c1cc(NC(=O)c2ccc(Cl)c([N+](=O)[O-])c2)cc(C(=O)O)c1	inactive: -8.7%	
CC(=O)c1ccc(NC(=O)c2sc3nc4n(c(=O)c3c2C)CCCCC4)cc1		inconclusive: 29.1 µM [activator, single point]
Cc1cc(C(=O)CSC(C)c2nc3ccccc3c(=O)[nH]2)c(C)n1C (centres undefined)	inactive: 0.098%	
Cc1ccc(S(=O)(=O)Nc2cc(=O)[nH]c(SCC(=O)Nc3cccc(C(F)(F)F)c3)n2)cc1	inactive: -1.83%	
CCNC(=O)N(CC)C[C@H]1N[C@@](C)(C(=O)OC)[C@H]2C(=O)N(C)C(=O)[C@@H]12		inconclusive: 0.13 µM [activator, full curve, poor fit]
Cc1ccc(OCCN2CCN(c3nc(NCc4ccco4)c4ccccc4n3)CC2)cc1		inconclusive: 29.1 µM [activator, single point]
Cc1cc2c(cc1C)N(C(=O)CCl)CCN2C(=O)CCl		active: 3.66 µM
O=c1c(-c2ccccc2)c1-c1ccccc1		active: 5.96 µM
Cc1ccc(-c2nnc(N3CCCCCC3)c3ccccc23)cc1	inactive: 9.55%	
O=C1c2cc(Cl)ccc2OC2(CCNCC2)C12CC(c1ccccc1)=NO2 (centres undefined)		inconclusive: 13 µM [activator, single point]
N#Cc1cccc(NC(=O)CSc2n[nH]c(=O)[nH]c2=O)c1		inconclusive: 0.82 µM [activator, partial curve, poor fit]
CCOC(=O)c1cc2c(=O)n3ccccc3nc2n(Cc2ccccc2)c1=N		inconclusive: 3.16 µM [activator, single point]
CN(C)c1ccc(NC(=O)CSc2nc(C3CC3)nc3ccccc23)cc1		inconclusive: 18.4 µM [activator, single point]
